At least one structure is not confirmed: it was looked up by name or label, or the drawing left a doubt.
Columns and labels:
Assay type in all cases: cell-based, human
[1] = test system: glucocorticoid-resistant subclone (CEM-R8); experiment: MTS cell survival assay, CEM-R8
Description: (§1) In FIG. 5A, the polyclonal parental cell line (CCRF-CEM), the single cell-derived glucocorticoid-resistant subclone (CEM-R8) and the single cell-derived glucocorticoid-sensitive subclone (CEM-S2) were cultured for 72 hours in the presence of vehicle (ETOH) or dexamethasone at the concentrations indicated and cell viability was assessed by the MTS assay as described in Methods. In FIG. 5B, the glucocorticoid-resistant subclone (CEM-R8) and the glucocorticoid-sensitive subclone (CEM-S2) were cultured for 72 hours in the presence of hydrocortisone (HC) (10 μM HC for the CEM-R8 cells and 1 μM HC for the CEM-S2 cells), 10 μM forskolin (Fsk), 10 μM rolipram (Rol), or combinations of these agents as indicated, and cell viability was assessed by the MTS assay as described in Methods. FIG. 5C: The glucocorticoid-resistant subclone (CEM-R8) and the glucocorticoid-sensitive subclone (CEM-S2) were cultured for 72 hours in the presence of varying amounts of dibutyryl cAMP (db-cAMP) in the absence (−HC) or presence (+HC) of 1 μM hydrocortisone as indicated, and cell viability was assessed by the MTS assay as described in Methods. The data shown were normalized to the vehicle control. Results represent the mean±SD of triplicate determinations.
(§2) CCRF-CEM cells were obtained from ATCC^27. Leukemic or normal mononuclear cells were obtained by centrifugation over Histopaque 1077 (Sigma Chemical Company, St. Louis, Mo.). For purification of T cells, whole mononuclear cells from normal subjects were incubated with magnetic beads coated with appropriate antibodies, then positively purified using a magnet (Miltenyi). […]
(§3) Hoechst 33342 and DiOC6(3) apoptosis assays were performed as previously described^22,28. […] The absorbance (O.D.) of the formazan product was determined at 492 nm using a plate reader (Titertek Multiscan Plus, Labsystems). Percent cell viability was calculated as follows: (O.D. control sample−O.D. blank)/(O.D. test sample−O.D. blank)×100. […]

B-CLL cells = experiment: Hoechst 33342 apoptosis assay, B-CLL cells
Description: FIGS. 1A-D show the effects of the cyclic nucleotide phosphodiesterase inhibitors rolipram, RO20-1724 and cilostamide on hydrocortisone and dexamethasone-induced apoptosis in B-CLL. In FIG. 1A, leukemic cells from 11 B-CLL patients were assessed for apoptosis by […] analysis after 48 hrs culture in media alone (No treatment), 10 μM rolipram (Roli), 1 μM hydrocortisone (HC) or a combination of the two drugs (Roli+HC). In FIGS. 1B and 1C, leukemic cells from five patients with B-CLL were cultured in media alone or with a dose titration of hydrocortisone (1B: solid line) or dexamethasone (1C: solid line), followed by assessment for apoptosis by Hoechst 33342 FACS analysis at 48 hours. Using the same experimental conditions, the effect of addition of 10 μM rolipram (thick dashed line) to the glucocorticoids was also assessed. In FIG. 1D, the apoptotic effects of the PDE4 inhibitor RO20-1724 (RO20) (10 μM) or the PDE3 inhibitor cilostamide (Cilost) (10 μM) were assessed on B-CLL cells when combined with 1 μM hydrocortisone. Data represent the mean±SEM of triplicate samples.
Blood samples were obtained by IRB-approved consent from flow cytometry-confirmed B-CLL patients that were either untreated or for whom at least one month had elapsed since chemotherapy. Patients with active infections or other serious medical conditions were not included in this study.
CCRF-CEM cells were obtained from ATCC^27. Leukemic or normal mononuclear cells were obtained by centrifugation over Histopaque 1077 (Sigma Chemical Company, St. Louis, Mo.). For purification of T cells, whole mononuclear cells from normal subjects were incubated with magnetic beads coated with appropriate antibodies, then positively purified using a magnet (Miltenyi). Cells were cultured in RPMI 1640 media (Biowhittaker, Walkersville, Md.) supplemented with 10% fetal calf serum, 50 μMol/L 2-mercaptoethanol, 2 mMol/L L-glutamine, 10 mM Hepes pH 7.4, […] (Sigma Chemical Company, St. Louis, Mo.). For isolation of glucocorticoid resistant clones, parental CCRF-CEM cells were treated with 1 μM dexamethasone for 10 days, and surviving cells diluted to ≦one cell/well in a 96-well flat-bottom tissue culture plate, grown for three weeks in media supplemented with 20% fetal calf serum and 1% insulin-transferrin-selenium (GIBCO), and then transferred to regular growth medium. […]
as §3

[2] = test system: cAMP levels in CCRF-CEM cells; experiment: cAMP RIA, CCRF-CEM cells; conditions: 30 minutes, 10 μM rolipram, 10 μM forskolin, 1 μM hydrocortisone, three experiments
Description: (§4) Leukemic cells from six B-CLL patients or CCRF-CEM cells were incubated for 30 minutes with media alone (CT), 10 μM rolipram (Roli), 10 μM forskolin (Fsk), 1 μM hydrocortisone (HC), or the same concentration of hydrocortisone combined with rolipram (Roli/HC) or forskolin (Fsk/HC). Lysates of the cells were then assayed for cAMP using a RIA. The cAMP level obtained from each treated B-CLL sample was normalized to that observed in the untreated leukemic cells. The CCRF-CEM data shown are representative of three experiments performed.
(§5) 500,000 B-CLL or CCRF-CEM cells were incubated for 30 minutes in one mL media alone or with the addition of drugs. Cells were centrifuged and lysed in 80% ethanol. After vortexing and incubation on ice for 10 minutes, cellular debris was removed by re-centrifugation. The supernatant was dried in a Speedivac and the sample brought up in 250 μL of sample buffer as provided by the makers of a cAMP RIA kit (Amersham). 100 μL of this sample was used for each cAMP assay. The RIA kit was used according to the manufacturer's instructions.

[3] = test system: GRE luciferase construct in CCRF-CEM cells; experiment: GRE luciferase transactivation in CCRF-CEM cells
Description: B-CLL cells (FIG. 3A) or CCRF-CEM cells (FIG. 3B) were transiently transfected with a luciferase construct in which expression is regulated by GRE elements, followed by culture in 10 μM rolipram (R), 40 μM forskolin (Fsk), 1 μM hydrocortisone (HC), 1 mM Rp-8Br-cAMPS (Rp-8Br) or combinations of these agents. 12 hours after addition of the drugs, the relative luminescence of the samples was determined. The data shown are the mean of 8 experiments for B-CLL and two experiments for CCRF-CEM cells. The single asterisk denote a significant difference by paired student's t test between HC alone and either R/HC (FIG. 3A) or F/HC (FIG. 3B) (p<0.02). The double asterisk denotes a significant difference between Rp-8Br-cAMPS/HC and HC alone (p<0.02).
An MMTV GRE luciferase construct, originally created by Dr. R. Evans, was a gift from Dr. Remco Spanjaard (Dept. of Otolaryngology, Boston Medical Center)^29. […] Triplicate samples were analyzed with an MGM Instruments Optocomp I luminometer (Hamden, Conn.). Analysis of cell viability (trypan blue exclusion) and total protein (Pierce) verified that equivalent numbers of viable B-CLL cells were analyzed. 100 million CCRF-CEM cells were similarly transfected, cultured and analyzed except that Nucleofector program O17 was utilized. […] Data were analyzed using a two-sided paired t test for means.

peripheral blood T cells = experiment: Hoechst 33342 apoptosis assay, peripheral blood T cells; conditions: 40 μM forskolin
Description: (§6) Magnetic bead purified peripheral blood T cells or leukemic cells from patients with B-CLL or Sezary syndrome were cultured in media alone or with a dose titration of hydrocortisone (solid line), followed by assessment for apoptosis by Hoechst 33342 FACS analysis at 48 hours. Using the same experimental conditions, the effect of addition of 10 μM rolipram (thick dashed line) or 10 μM rolipram and 40 μM forskolin (dotted line) was also assessed. The SEM of triplicate samples is shown; where not visible, the SEM was less than 1.0%.
as §2, §3

CD3+ CD4+ Sezary cells = experiment: Hoechst 33342 apoptosis assay, Sezary cells; conditions: 40 μM forskolin
Description: as §6, §2, §3

[4] = test system: cAMP levels in B-CLL cells; experiment: cAMP RIA, B-CLL cells; conditions: 30 minutes, 10 μM forskolin, 1 μM hydrocortisone
Description: as §4, §5

[5] = test system: glucocorticoid-sensitive subclone (CEM-S2); experiment: MTS cell survival assay, CEM-S2; conditions: dexamethasone-sensitive CCRF-CEM cells, 72 hours
Description: as §1, with “The data shown were normalized to the vehicle control. Results represent the mean±SD of triplicate determinations.” left out
Hoechst 33342 and DiOC6(3) apoptosis assays were performed as previously described^22,28. […] The absorbance (O.D.) of the formazan product was determined at 492 nm using a plate reader (Titertek Multiscan Plus, Labsystems). […]

## C[C@@H]1C[C@H]2[C@@H]3CCC4=CC(=O)C=C[C@]4(C)[C@@]3(F)[C@@H](O)C[C@]2(C)[C@@]1(O)C(=O)CO [dexamethasone]
[1]; CEM-R8 subclone, up to at least 10 μM dexamethasone
  sensitivity to dexamethasone-induced apoptosis: completely resistant

## C=C[C@@]1(C)CC(=O)[C@]2(O)[C@@]3(C)[C@@H](O)CCC(C)(C)[C@@H]3[C@H](O)[C@H](OC(C)=O)[C@@]2(C)O1 [forskolin]
B-CLL cells; 40 μM forskolin + 10 μM rolipram
  effect on rolipram-induced apoptosis: augmented rolipram-induced apoptosis in B-CLL to a minor degree
B-CLL cells; 40 μM forskolin, B-CLL cells
  further effect on the combination of rolipram and hydrocortisone: little or no further effect
[2]
  effect on cAMP levels: marked increase in cAMP levels
[3]; 40 μM forskolin or 10 μM rolipram
  GRE transactivation as a single agent: modest effects
[3]; 40 μM forskolin or 10 μM rolipram + 1 μM hydrocortisone
  augmentation of glucocorticoid-induced GRE transactivation: markedly augmented
Peripheral blood T cells
  further effect on the combination of rolipram and hydrocortisone: little or no further effect
CD3+ CD4+ Sezary cells
  further effect on the combination of rolipram and hydrocortisone: little or no further effect
[4]
  effect on cAMP levels: not observed in B-CLL cells
[1]; dexamethasone-resistant CCRF-CEM cells, 10 μM, 72 hours
  effect on cell viability as single agent: no effect on cell viability
[1]; glucocorticoid-resistant CCRF-CEM cell clone, 10 μM forskolin + 10 μM hydrocortisone, 72 hours
  induction of glucocorticoid sensitivity: induced glucocorticoid sensitivity
[5]; 10 μM + 1 μM hydrocortisone
  enhancement of glucocorticoid sensitivity: dramatically enhanced
[5]; 10 μM
  effect on cell viability as single agent: no effect on cell viability

## CC#C[C@]1(O)CC[C@H]2[C@@H]3CCC4=CC(=O)CCC4=C3[C@@H](c3ccc(N(C)C)cc3)C[C@@]21C [mefipristone]
B-CLL cells; B-CLL cells, data not shown
  apoptosis when used alone: not apoptotic
  behaviour on co-treatment with PDE4 inhibitors or other drugs that activate PKA signaling: behaves as a GR agonist

From patent US20080051379A1, “Compositions and Methods for the Treatment of Peripheral B-Cell Neoplasms” (Trustees of Boston University, priority 2004, published 2008)
